Laboratory results taken from article PMC4906249.
No constants are given. Whether binding was seen depends on the method and setting. Some entries that bind do so weakly or less than the wild type. Sequences can lack the tags named with a protein.

Protein sequences, listed by entry. Tags and fused reporters are not part of them.
UniProt O95251: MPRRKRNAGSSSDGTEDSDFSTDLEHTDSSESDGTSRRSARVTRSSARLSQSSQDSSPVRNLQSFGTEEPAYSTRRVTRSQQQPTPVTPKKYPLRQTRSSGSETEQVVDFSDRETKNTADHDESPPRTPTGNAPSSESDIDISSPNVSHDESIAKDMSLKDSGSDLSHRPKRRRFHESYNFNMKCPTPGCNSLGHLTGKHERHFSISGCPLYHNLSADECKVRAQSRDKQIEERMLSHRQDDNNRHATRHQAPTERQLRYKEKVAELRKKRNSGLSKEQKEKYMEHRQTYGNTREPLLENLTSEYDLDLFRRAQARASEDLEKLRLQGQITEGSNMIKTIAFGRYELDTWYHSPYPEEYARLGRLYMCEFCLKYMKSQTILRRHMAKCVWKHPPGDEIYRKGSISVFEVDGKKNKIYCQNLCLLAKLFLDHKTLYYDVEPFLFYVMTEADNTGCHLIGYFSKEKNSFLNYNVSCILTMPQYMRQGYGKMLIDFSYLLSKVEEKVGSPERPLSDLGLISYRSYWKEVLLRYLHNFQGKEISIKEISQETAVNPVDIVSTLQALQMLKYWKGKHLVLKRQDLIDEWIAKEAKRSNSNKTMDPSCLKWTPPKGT

Target: tetR-EYFP-KAT7 (human) (UniProt O95251)
Assay: fluorescence microscopy-based interaction-trap assay; tetR-EYFP fusion tethered to the ectopic alphoid^tetO DNA integration site in HeLa-Int-03 cells; recruitment of Halo-tag-fused prey seen with Halo-TMR ligand

binding: binds
B1: Halo-tag fused M18BP1 C-terminal domain (domain or fragment, UniProt Q6P0N0 851-1132)
chain: EFPITEAVGSDKTNRHPLECLPGLIQDKEWNEKELQKLHCAFASLPKHKPGFWSEVAAAVGSRSPEECQRKYMENPRGKGSQKHVTKKKPANSKGQNGKRGDADQKQTIKITAKVGTLKRKQQMREFLEQLPKDDHDDFFSTTPLQHQRILLPSFQDSEDDDDILPNMDKNPTTPSSVIFPLVKTPQCQHVSPGMLGSINRNDCDKYVFRMQKYHKSNGGIVWGNIKKKLVETDFSTPTPRRKTPFNTDLGENSGIGKLFTNAVESLDEEEKDYYFSNSDSA
